PubChem BioAssay AID1259308, NCATS – 2017
The deposit covers about 59,000 reagents; below is a part drawn at random. About 1,510 of them (2.6%) count as active. 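Calls use total luciferase alone and ignore viability, so some active siRNAs may act by altering cell number.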 Not all columns of the deposit are shown. No sequences are given here.

Screen: 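Genes whose loss raises luciferase production in HEK293 cells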 (primary screen)
Cells: human HEK293 embryonic kidney cells stably expressing firefly luciferase (HEK-CMV-Luc2-Hygro)
Reagents: single siRNA against human genes, 0.8 pmol siRNA per well
Duration: 72 h
Detection: 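Luciferase light (ONE-Glo) measured on one replicate plate set and viability (CellTiter-Glo) on the other, scaled to a negative control siRNA, with robust z-scores and luciferase per cell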
Scale: total luciferase, z-score: higher = more reporter protein produced
Active means: 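An siRNA counts as active if its total luciferase robust z-score exceeds 3; genes with two or more such siRNAs out of three were retested with fresh siRNAs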
Meaning of the calls: active = raised luciferase; inactive = no rise

{"target": "NAT9 (N-acetyltransferase 9)", "PubChem SID": "SID160730920", "total luciferase, z-score": -0.382, "outcome": "inactive"}
{"target": "NAT9 (N-acetyltransferase 9)", "PubChem SID": "SID160737707", "total luciferase, z-score": -0.0495, "outcome": "inactive"}
{"target": "NAT9 (N-acetyltransferase 9)", "PubChem SID": "SID160737708", "total luciferase, z-score": -0.954, "outcome": "inactive"}
{"target": "CFAP20 (cilia and flagella associated protein 20)", "PubChem SID": "SID160739078", "total luciferase, z-score": 1.15, "outcome": "inactive"}
{"target": "CFAP20 (cilia and flagella associated protein 20)", "PubChem SID": "SID160739081", "total luciferase, z-score": 0.86, "outcome": "inactive"}
{"target": "CFAP20 (cilia and flagella associated protein 20)", "PubChem SID": "SID160739082", "total luciferase, z-score": 0.167, "outcome": "inactive"}
{"target": "KRT31 (keratin 31)", "PubChem SID": "SID160776433", "total luciferase, z-score": -0.969, "outcome": "inactive"}
{"target": "KRT31 (keratin 31)", "PubChem SID": "SID160776434", "total luciferase, z-score": 0.751, "outcome": "inactive"}
{"target": "KRT31 (keratin 31)", "PubChem SID": "SID160776435", "total luciferase, z-score": -0.0382, "outcome": "inactive"}
{"target": "SNX24 (sorting nexin 24)", "PubChem SID": "SID160738888", "total luciferase, z-score": 0.335, "outcome": "inactive"}
{"target": "SNX24 (sorting nexin 24)", "PubChem SID": "SID160738889", "total luciferase, z-score": 1.13, "outcome": "inactive"}
{"target": "SNX24 (sorting nexin 24)", "PubChem SID": "SID160738890", "total luciferase, z-score": -0.492, "outcome": "inactive"}

Entries above whose gene name begins with C or c:
{"target": "CFAP20 (cilia and flagella associated protein 20)", "PubChem SID": "SID160739078", "total luciferase, z-score": 1.15, "outcome": "inactive"}
{"target": "CFAP20 (cilia and flagella associated protein 20)", "PubChem SID": "SID160739081", "total luciferase, z-score": 0.86, "outcome": "inactive"}
{"target": "CFAP20 (cilia and flagella associated protein 20)", "PubChem SID": "SID160739082", "total luciferase, z-score": 0.167, "outcome": "inactive"}

Next reagents follow.
{"target": "CFAP53 (cilia and flagella associated protein 53)", "PubChem SID": "SID160761503", "total luciferase, z-score": 3.96, "outcome": "active"}
{"target": "CFAP53 (cilia and flagella associated protein 53)", "PubChem SID": "SID160761504", "total luciferase, z-score": -1.66, "outcome": "inactive"}
{"target": "CFAP53 (cilia and flagella associated protein 53)", "PubChem SID": "SID160761505", "total luciferase, z-score": -0.0842, "outcome": "inactive"}
{"target": "ATP5PB (ATP synthase peripheral stalk-membrane subunit b)", "PubChem SID": "SID160721895", "total luciferase, z-score": 0.0948, "outcome": "inactive"}
{"target": "ATP5PB (ATP synthase peripheral stalk-membrane subunit b)", "PubChem SID": "SID160721914", "total luciferase, z-score": -0.215, "outcome": "inactive"}
{"target": "ATP5PB (ATP synthase peripheral stalk-membrane subunit b)", "PubChem SID": "SID160731383", "total luciferase, z-score": 2.9, "outcome": "inactive"}
{"target": "GARNL3 (GTPase activating Rap/RanGAP domain like 3)", "PubChem SID": "SID160751965", "total luciferase, z-score": 0.302, "outcome": "inactive"}
{"target": "GARNL3 (GTPase activating Rap/RanGAP domain like 3)", "PubChem SID": "SID160751966", "total luciferase, z-score": -0.744, "outcome": "inactive"}
{"target": "GARNL3 (GTPase activating Rap/RanGAP domain like 3)", "PubChem SID": "SID160751967", "total luciferase, z-score": -1.24, "outcome": "inactive"}
{"target": "SLC2A4RG (SLC2A4 regulator)", "PubChem SID": "SID160745158", "total luciferase, z-score": -1.34, "outcome": "inactive"}
{"target": "SLC2A4RG (SLC2A4 regulator)", "PubChem SID": "SID160745159", "total luciferase, z-score": 0.614, "outcome": "inactive"}
{"target": "SLC2A4RG (SLC2A4 regulator)", "PubChem SID": "SID160745160", "total luciferase, z-score": 0.214, "outcome": "inactive"}
{"target": "CRYM (crystallin mu)", "PubChem SID": "SID160748837", "total luciferase, z-score": -1.57, "outcome": "inactive"}
{"target": "CRYM (crystallin mu)", "PubChem SID": "SID160748848", "total luciferase, z-score": -0.00852, "outcome": "inactive"}
{"target": "CRYM (crystallin mu)", "PubChem SID": "SID160748857", "total luciferase, z-score": -2.15, "outcome": "inactive"}
{"target": "TMEM41B (transmembrane protein 41B)", "PubChem SID": "SID160767664", "total luciferase, z-score": 0.916, "outcome": "inactive"}
{"target": "TMEM41B (transmembrane protein 41B)", "PubChem SID": "SID160767665", "total luciferase, z-score": 1.86, "outcome": "inactive"}
{"target": "TMEM41B (transmembrane protein 41B)", "PubChem SID": "SID160767666", "total luciferase, z-score": -0.529, "outcome": "inactive"}
{"target": "ARHGEF2 (Rho/Rac guanine nucleotide exchange factor 2)", "PubChem SID": "SID160721661", "total luciferase, z-score": -1.13, "outcome": "inactive"}
{"target": "ARHGEF2 (Rho/Rac guanine nucleotide exchange factor 2)", "PubChem SID": "SID160721662", "total luciferase, z-score": 0.203, "outcome": "inactive"}
{"target": "ARHGEF2 (Rho/Rac guanine nucleotide exchange factor 2)", "PubChem SID": "SID160721663", "total luciferase, z-score": -0.949, "outcome": "inactive"}
